Assay results as given in paper PMC4267192.

Amino acid sequences for entries named in this document (tags omitted). A change or cut given only in a name is not applied to a line headed by its entry.
UniProt P92973: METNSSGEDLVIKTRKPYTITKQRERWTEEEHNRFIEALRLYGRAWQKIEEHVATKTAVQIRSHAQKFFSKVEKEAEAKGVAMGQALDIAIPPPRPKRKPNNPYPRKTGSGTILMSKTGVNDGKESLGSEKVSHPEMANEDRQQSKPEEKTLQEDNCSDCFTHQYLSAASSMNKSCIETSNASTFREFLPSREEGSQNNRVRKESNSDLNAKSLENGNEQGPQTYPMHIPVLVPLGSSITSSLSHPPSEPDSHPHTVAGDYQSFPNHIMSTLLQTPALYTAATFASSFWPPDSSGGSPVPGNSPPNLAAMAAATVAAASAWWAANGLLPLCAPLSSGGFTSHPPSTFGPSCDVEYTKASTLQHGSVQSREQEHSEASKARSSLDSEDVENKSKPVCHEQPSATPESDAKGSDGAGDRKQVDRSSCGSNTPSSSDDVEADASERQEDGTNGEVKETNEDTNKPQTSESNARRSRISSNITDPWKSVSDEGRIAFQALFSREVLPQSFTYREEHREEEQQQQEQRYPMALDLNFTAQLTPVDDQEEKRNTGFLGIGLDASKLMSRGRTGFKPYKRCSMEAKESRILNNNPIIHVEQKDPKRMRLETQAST

What was measured:
CCA1-GST [1] = target: CCA1-GST (UniProt P92973); experiment: competition with a labelled probe; conditions: EMSA, excess unlabeled against labeled probe 1; 25 mM HEPES-KOH pH 7.5, 50 mM KCl, 2.5 mM DTT, 1 mM PMSF, 10% glycerol, 1 ug poly-dIdC in 10 ul, 20 min on ice (final concentrations calculated from 5X buffer); recombinant protein; protein details: GST (pGEX-3X); label: none (unlabeled competitor); probe letters rebuilt from the primers and the genome
CCA1-GST [2] = target: CCA1-GST (UniProt P92973); experiment: EMSA; conditions: 30-90 ng protein, two shifted bands, competed dose-dependently by unlabeled probe 1; 25 mM HEPES-KOH pH 7.5, 50 mM KCl, 2.5 mM DTT, 1 mM PMSF, 10% glycerol, 1 ug poly-dIdC in 10 ul, 20 min on ice (final concentrations calculated from 5X buffer); recombinant protein; protein details: GST (pGEX-3X); label: 32P end label; probe letters rebuilt from the primers and the genome

“ATCAACAAACCACTGATTCAACTACACTTTTGATTTAAATGTGAAAGCTAGTGAGACTCATTTAAAAAAACATTGATCATCTAAAAATAGAAACCCTAATTAAGGAATCAGGGAAAAAAGATTACCTGTGTAAGAAGGTAACCCCAGAAGAAAGAAGACTGAATCAGACCAACTGTTGCTGGATTCCAACCATACTCAGCTGACATCGGAAGTATAGCTATACTCATATTCACCTGTTAAAACATCATCTGTCCCAAATTGAATAACTCTTCCCAATCCATAAAAATCCAATCTTTTTTGCTACTTACTCTGTCCATATTGCAGAGAAGAAAAGCTGAGAAACAGAGTAACACAATCACCCACCGCTTCGGAAACTCTTCCCACCATGGGAGGACGATAGAGCTAGGCGAATCAGAAACGACGTCATTGTTTCCACTTACTTTATCTCCTTCTACGTAATACGAATTACTGCTTTCACTCTTGTCGGAGCTCCGAACTAATACCCGGAAAACACTGGACCTATTTCGCGGGTAG (double strand) [PHT4;1-NC (PHT4;1-negative)]”: no binding (CCA1-GST [1]).

“GTAGAGAGAGTGAATATTTGAAGAGCAAAGAAGAGCTCTCGCGTTCATGGCGGAGATAGATTTTTTCTTCTTCTTCTCTGTTTTTTTCTTCTTTGTTTTAAGAGAGAGGAATTGATTTTTTTTTAAGGTCGTGGCTGATGTGACGACATGTGGCGTTTAAGTATTGGTTGAGTGAGGATGTCATAATCTAACGGGAAGTAACGGTTAACAGAATAACTATTGGAGGTCCATTATTAACTATCAGTTTAACATAAAGCCCATATAAGGCCCAAATAATGTTAGCTTACGAGCATAAATTGCGAGATCTATCTTACTTCCCCAATGAAAAAAAAATCTCAAAGATTTGGAAGTAGACCTATGAATAGAATTACAATAATACGGCAATACCAATAACAA (double strand) [PHT4;1 promoter probe 1]”: binds (CCA1-GST [2]).

For at least one entry, the source does not settle the construct or the ends of the probe. For some assays here: A negative result means that nothing was seen under these conditions.
